Measurements taken from publication PMC6050252.
These are yes or no findings as the source states them, for the method shown. Binding seen in cells or lysates may run through a third protein. Here binding means that the protein was enriched with, or labelled near, the bait; the list need not be complete.

T1: CDC50A (TMEM30A), mouse, endogenous (mouse (endogenous in mouse tissues)) (UniProt Q8VEK0)
T1 sequence: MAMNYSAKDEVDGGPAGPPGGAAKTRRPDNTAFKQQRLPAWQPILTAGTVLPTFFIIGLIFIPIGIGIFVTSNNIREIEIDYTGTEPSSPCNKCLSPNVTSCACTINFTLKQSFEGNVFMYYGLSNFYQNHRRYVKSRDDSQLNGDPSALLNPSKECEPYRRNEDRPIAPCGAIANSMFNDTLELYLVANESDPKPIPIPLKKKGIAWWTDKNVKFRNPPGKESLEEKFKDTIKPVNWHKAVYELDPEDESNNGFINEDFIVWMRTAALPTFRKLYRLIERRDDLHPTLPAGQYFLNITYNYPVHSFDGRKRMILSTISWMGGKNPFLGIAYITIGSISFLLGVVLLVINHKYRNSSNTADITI


Target: T1, CDC50A (TMEM30A), mouse, endogenous (mouse (endogenous in mouse tissues))
Assay: affinity purification with mass spectrometry; CHAPS-solubilised membranes of mouse retina, liver, brain, testes, kidney (~20 mg protein) on Cdc50-7F4-Sepharose, 4 °C, 1 h; washed in 10 mM CHAPS, 40 mM Tris pH 7.4, 150 mM NaCl, 5 mM MgCl2, 1 mM DTT; eluted with 7F4 peptide; in-gel (retina) or FASP trypsin digestion, MS/MS

binding	Binder
binds	ATP11A, mouse, endogenous (protein, UniProt P98197 1-1187) MDCSLLRTLVRRYCAGEENWVDSRTIYVGHKEPPPGAEAYIPQRYPDNRIVSSKYTFWNFIPKNLFEQFRRIANFYFLIIFLVQLIIDTPTSPVTSGLPLFFVITVTAIKQGYEDWLRHKADNAMNQCPVHFIQHGKLVRKQSRKLRVGDIVMVKEDETFPCDLIFLSSNRADGTCHVTTASLDGESSHKTHYAVQDTKGFHTEADVDSLHATIECEQPQPDLYKFVGRINVYNDLNDPVVRPLGSENLLLRGATLKNTEKIFGVAIYTGMETKMALNYQSKSQKRSAVEKSMNTFLIVYLCILVSKALINTVLKYVWQSEPFRDEPWYNEKTESERQRNLFLRAFTDFLAFMVLFNYIIPVSMYVTVEMQKFLGSYFITWDEDMFDEEMGEGPLVNTSDLNEELGQVEYIFTDKTGTLTENNMAFKECCIEGHVYVPHVICNGQVLPDSSGIDMIDSSPGVCGREREELFFRAICLCHTVQVKDDHCGDDVDGPQKSPDAKSCVYISSSPDEVALVEGVQRLGFTYLRLKDNYMEILNRENDIERFELLEVLTFDSVRRRMSVIVKSTTGEIYLFCKGADSSIFPRVIEGKVDQVRSRVERNAVEGLRTLCVAYKRLEPEQYEDACRLLQSAKVALQDREKKLAEAYEQIEKDLVLLGATAVEDRLQEKAADTIEALQKAGIKVWVLTGDKMETASATCYACKLFRRSTQLLELTTKKLEEQSLHDVLFDLSKTVLRCSGSMTRDSFSGLSTDMHDYGLIIDGAALSLIMKPREDGSSSGNYRELFLEICRNCSAVLCCRMAPLQKAQIVKLIKFSKEHPITLAIGDGANDVSMILEAHVGIGVIGKEGRQAARNSDYAIPKFKHLKKMLLVHGHFYYIRISELVQYFFYKNVCFIFPQFLYQFFCGFSQQTLYDTAYLTLYNISFTSLPILLYSLMEQHVGIDVLKRDPTLYRDIAKNALLRWRVFIYWTFLGVFDALVFFFGAYFIFENTTVTINGQMFGNWTFGTLVFTVMVLTVTLKLALDTHYWTWINHFVIWGSLLFYIAFSLLWGGVIWPFLSYQRMYYVFISMLSSGPAWLGIILLVTVGLLPDVLKKVLCRQLWPTATERTQNIQHQDSISEFTPLASLPSWGAQGSRLLAAQCSSPSGRVVCSRWESEECPVLPLHPGLPHKARYGCCRSSLEMPT
binds	ATP11B, mouse, endogenous (protein, UniProt Q6DFW5 1-1175) MWRWVRQQLGFDPPHQSDTRTIYIANRFPQNGLYTPQKFIDNRIISSKYTIWNFVPKNLFEQFRRVANFYFLIIFLVQLMIDTPTSPITSGLPLFFVITVTAIKQGYEDWLRHNSDNEVNGAPVYVVRSGGLVKTRSKNIRVGDIVRIAKDEIFPADLVLLSSDRLDGSCHVTTASLDGETNLKTHVSVPETAVLQTVANLDSLIAVIECQQPEADLYRFMGRMIITQQMEEIVRPLGPESLLLRGARLKNTKEIFGVAVYTGMETKMALNYKSKSQKRSAVEKSMNTFLIIYLIILISEAIISTILKYTWQAEEKWDEPWYNQKTEHQRNSSKILRFISDFLAFLVLYNFIIPISLYVTVEMQKFLGSFFIGWDLDLYHEESDQKAQVNTSDLNEELGQVEYVFTDKTGTLTENEMQFRECSINGLKYQEINGKLVPEGPSPDSTEGEVPFLGSLSHLSNSAHLTATSLRTSPESETELIKEHDLFFKAVSLCHTVQISNVQTDGIGDGPWQPNLAPAQLEYYASSPDEKALVEAAARAGIIFVGISEETMEVKVLGRLERYKLLHILEFDSDRRRMSVIVQAPSGEKLLFAKGAESSILPKCIGGEIAKTRIHVDEFALKGLRTLCIAYRQFTAKEYEDVDRRLFEARTALQHREEKLADAFQYIEKDLILLGATAVEDRLQDKVRETIEALRMAGIKVWVLTGDKHETAVSVSLSCGHFHRTMNILELINQKSDSGCAEQLRQLARRITEDHVIQHGLVVDGTSLSLALREHEKLFMEVCRNCSAVLCCRMAPLQKAKVIRLIKISPEKPITLAVGDGANDVSMIQEAHVGIGIMGKEGRQAARNSDYAIARFKFLSKLLFVHGHFYYIRIATLVQYFFYKNVCFITPQFLYQFYCLFSQQTLYDSVYLTLYNICFTSLPVLIYSLVEQHIDPHVLQSKPTLYRDISKNGLLSIKAFLYWTVLGFSHAFIFFFGSYFLVGKDTSLLGNGQMFGNWTFGTLVFTVMVITVTVKMALETHFWTWINHLVTWGSIIFYFIFSLFYGGILWPFLGSQNMYFVFIQLLSSGSAWFAILLMVVTCLFIDVVKKVFDRQLHPTSTEKAQLAEAHSSVKCLDSVCCFPGETPCASVGRMLERVIGRCSPNHISRLWNASDPFYTNDRSILTLSPMDSSTC
binds	ATP11C, mouse, endogenous (protein, UniProt Q9QZW0 1-1129) MFRRTLNRLCAGEEKRVGTRTVFVGNHPISGTEPYIAQRFCDNRIVSSKYTLWNFLPKNLFEQFRRIANFYFLIIFLVQVTVDTPTSPVTSGLPLFFVITVTAIKQGYEDWLRHRADNEVNKSAVYIIENAKRVRKESEKIKVGDVVEVQANETFPCDLILLSSCTTDGTCYVTTASLDGESNCKTHYAVRDTIALCTAESIDNLRATIECEQPQPDLYRFVGRISIYSNSIEAVARSLGPENLLLKGATLKNTKKIYGVAVYTGMETKMALNYQGKSQKCSAVEKSINAFLIVYLFILLTKAAVCTTLKYVWQSSPYNDEPWYNQKTQKERETFQVLKMFTDFLSFMVLFNFIIPVSMYVTVEMQKFLGSFFISWDKDFFDEEINEGALVNTSDLNEELGQVDYVFTDKTGTLTENSMEFIECCIDGHKYKGTTQEVDGLSQTDGPLAYFDKADKNREALFLRALCLCHTVEMKTNDDVDGPVEGAGFTYISSSPDEIALVKGAKRFGFTFLGNQNGYIRVENQRKEIEEYELLHTLNFDSVRRRMSVIVRTQKGDILLFCKGADSSIFPRVHSHQIELTKDHVERNAMDGYRTLCVAFKEIPPDDFERINAQLVEAKMALQDREEKLEKVFDEIETNMNLIGATAVEDKLQDQAAETIEALHAAGLKVWVLTGDKMETAKSTCYACRLFQTNTELLELTTKTIEESERKEDRLHELLIEYRKKLLHEFPKSTRSLKKAWTEHQEYGLIIDGSTLSLILNSSQDCSSNNYKSIFLQICMKCTAVLCCRMAPLQKAQIVRMVKNLKGSPITLSIGDGANDVSMILESHVGIGIKGKEGRQAARNSDYSVPKFKHLKKLLLVHGHLYYVRIAHLVQYFFYKNLCFILPQFLYQFFCGFSQQPLYDAAYLTMYNICFTSLPILAYSLLEQHINIDTLTADPRLYMKITGNAMLQLGPFLHWTFLAAFEGTVFFFGTYFLFQTSSLEDNGKIYGNWTFGTIVFTVLVFTVTLKLALDTRFWTWINHFVIWGSLAFYVFFSFFWGGIIWPFLKQQRMYFVFAQMLCSVSTWLAIILLIFISLFPEILLIVVKNVRRRSARRNLSCRRASDSLSARPSVRPLLLRTFSDESNIL
binds	ATP8A2, mouse, endogenous (protein, UniProt P98200 1-1148) MSRATSVGDQLEAPARIIYLNQSHLNKFCDNRISTAKYSVLTFLPRFLYEQIRRAANAFFLFIALLQQIPDVSPTGRYTTLVPLVIILTIAGIKEIIEDFKRHKADNAVNKKKTIVLRNGMWHTIMWKEVAVGDIVKVLNGQYLPADMVLFSSSEPQGMCYVETANLDGETNLKIRQGLSHTTDMQTRDVLMKLSGRIECEGPNRHLYDFTGNLHLDGKSSVALGPDQILLRGTQLRNTQWVFGVVVYTGHDSKLMQNSTKAPLKRSNVEKVTNVQILVLFGILLVMALVSSVGALFWNGSHGGKSWYIKKMDTNSDNFGYNLLTFIILYNNLIPISLLVTLEVVKYTQALFINWDMDMYYIENDTPAMARTSNLNEELGQVKYLFSDKTGTLTCNIMNFKKCSIAGVTYGHFPELAREQSSDDFCRMTSCTNDSCDFNDPRLLKNIEDQHPTAPCIQEFLTLLAVCHTVVPEKDGDEIIYQASSPDEAALVKGAKKLGFVFTGRTPYSVIIEAMGQEQTFGILNVLEFSSDRKRMSVIVRLPSGQLRLYCKGADNVIFERLSKDSKYMEETLCHLEYFATEGLRTLCVAYADLSENEYEEWLKVYQEASIILKDRAQRLEECYEIIEKNLLLLGATAIEDRLQAGVPETIATLLKAEIKIWVLTGDKQETAINIGYSCRLVSQNMALILLKEDSLDATRAAITQHCTDLGNLLGKENDVALIIDGHTLKYALSFEVRRSFLDLALSCKAVICCRVSPLQKSEIVDVVKKRVKAITLAIGDGANDVGMIQTAHVGVGISGNEGMQATNNSDYAIAQFSYLEKLLLVHGAWSYNRVTKCILYCFYKNVVLYIIELWFAFVNGFSGQILFERWCIGLYNVIFTALPPFTLGIFERSCTQESMLRFPQLYRITQNAEGFNTKVFWGHCINALVHSLILFWVPMKALEHDTPVTSGHATDYLFVGNIVYTYVVVTVCLKAGLETTAWTKFSHLAVWGSMLIWLVFFGVYSTIWPTIPIAPDMKGQATMVLSSAYFWLGLFLVPTACLIEDVAWRAAKHTCKKTLLEEVQELETKSRVMGKAMLRDSNGKRMNERDRLIKRLSRKTPPTLFRTGSIQQCVSHGYAFSQEEHGAVTQEEIVRAYDTTKENSRKK
